# Measurements published in PubChem BioAssay AID1347423 (Functional Genomics Laboratory (NCATS/FGL), 2020).
# The whole screen tested about 52,000 sequences, of which about 210 (0.4%) were called active.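 The calls were made as follows: active = gene whose silencing raises cell survival under the drug, median off-target-corrected z-score across its silencing RNAs 2 or more; inactive = the rest.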 This is one part of the list.
# Experiment: Resistance to Poly (ADP-Ribose) Polymerase inhibitor: Gene Identification via Genome-wide siRNA Screen
# Details: mouse BRCA2 R2336H ES cells, olaparib, CellTiter-Glo viability; stronger effect = higher value
# Method in brief: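 Genome-wide siRNA screen (3 siRNAs/gene, 20 nM) in mouse ES cells carrying hypomorphic BRCA2 R2336H; olaparib 500 nM added 48 h post-transfection, CellTiter-Glo viability 72 h later. Normalized to plate-median negative control; MAD z-scores, gene median, seed-adjusted.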
row,Sequence,z-score
1,GCCACCGUAUAUUUUUAAUTT against Gats,inactive: 1.02
2,CCCUUUACAUUACUCUAGCTT against Olfr715,inactive: -0.921
3,GGGAAAUGUUGAUAAUAAGTT against Morf4l2,inactive: -0.869
4,CCAUAUAGAUCAUCUGUUCTT against 4930470P17Rik,inactive: -0.18
5,GGAUAUGCUGAGGUGGUGGTT against 5730453I16Rik,inactive: 0.775
6,GGUUGGUCUCCUCUUCAUATT against Psmd10,inactive: -0.561
7,GGAUUAAAUGCCUUGAAGGTT against Niban,inactive: 0.624
8,GAAUAUCCGCACACAAAGCTT against Olfr1356,inactive: 0.196
9,GCCAUUCACGACCCACUACTT against Olfr1095,inactive: 0.865
10,GCGGUCAAAUGCAACAAACTT against Fabp5,inactive: -0.133
11,GGUUGAGAAGUCUGUUAAUTT against Hsp105,inactive: 0.345
12,GGUAUUUAGCCUUGCAUACTT against Sfrs8,inactive: -0.483
13,GCAGAGAUACCUAUCAAAGTT against Angptl4,inactive: -0.00897
14,GCACUCUCAUUCCUAUUGGTT against E130304D01,inactive: -1.19
15,CGGGAAUAAGAUCUUUCUGTT against Zfp297,inactive: 0.946
16,GCGAAUCUUGGUUAAGCCGTT against Hook1,inactive: -1.78
17,GGAAGUCCAUCAGCUUUAUTT against BC028975,inactive: 0.554
18,GGGAGUUUGAUUCUGACUCTT against Ank3,inactive: 0.274
19,GGACUUUGAGAACUUUUAUTT against C130053K05Rik,inactive: 0.249
20,GCAACAACGAGUCAUGGCUTT against Plcd,inactive: 0.689
21,GGGCUUGAGAACAACCAGATT against Adamdec1,inactive: -0.59
22,GGCGUGCUCUGACACAAAATT against A030009H04Rik,inactive: -0.22

row,Sequence,z-score
1,GGUCCUACAUAAUACAACATT against Myohd1,inactive: -0.216
2,GCUUCUAGCCUGUAUUGCCTT against Rps8,inactive: -2.91
3,CGGCAGUGGAACAAUAGACTT against 1700028N11Rik,inactive: -0.512
4,GGGAGAUGUUACAACUCAGTT against Sod2,inactive: -0.0764
5,GGAAACUGGAUCAAACCAUTT against Smarcd3,inactive: 0.666
6,GCCAAAAAGUGUGUGUUGGTT against Olfr731,inactive: 0.36
7,GCUGGCUUCAUUUUACUUATT against Degs,inactive: 0.198
8,GCAGCCUUGUUUCAGUUCUTT against BC022623,inactive: -0.365
9,GGAGGAAGACCUUCAGAGATT against Ell2,inactive: -1.38
10,ACGUGGAAUCUGCUGUAAUTT against D9Ertd402e,inactive: -0.386
11,GGAGUAUCUGCUGUUCAGUTT against Gabpb1,inactive: -1.26
12,GGUUAACGGAUCAACAUUUTT against Ube2d2,inactive: -0.583
13,GGCGUAGGUCACCACAUUGTT against Spin2,inactive: -2.38
14,CGAAGAAUGACGAUGAUAUTT against 1110034C04Rik,inactive: -0.23
15,GCUCUUCUUACCACUGUAGTT against Wdfy3,inactive: 0.513
16,GGUGCUGAACAAGACCAAGTT against Cyp27a1,inactive: -0.0933
17,GGAAACAUCCACAAAGAGUTT against BC021438,inactive: -0.833
18,AGGAAUGCCCAGGUCUCAGTT against Lst1,inactive: 1.62
19,GGUUUGAGGAGUUAGGUUCTT against Sdhd,inactive: 0.687
20,GGGCACAGACAUGUUUGAGTT against Padi3,inactive: 0.948
21,GCCGGUCCUUAGAGUUGUUTT against Olfr506,inactive: -0.632
22,CCACAUCAAGUCUAUCAUCTT against Ryr1,inactive: 0.509

row,Sequence,z-score
1,GGAAAGACUAUGCCCAUCUTT against 4930474M22Rik,inactive: 0.475
2,GGACAAUGUCCUCCAAUCUTT against Rgnef,inactive: -1.42
3,CGUUGCACCUCUAUGGCAATT against 5832418A03Rik,inactive: -0.8
4,GGCAAGUGACAUUGUUCCUTT against Gm110,inactive: 0.4
5,GGAUCGGACUCUUUUAUAUTT against 2400006A19Rik,inactive: -2.97
6,GGAAGACUGCACAGAUGUGTT against Ramp1,inactive: -0.943
7,GCGAUCUAGUGAAGAUGUGTT against Rapgef4,inactive: -0.00169
8,GGAGAAAUUAGAGUGAUCGTT against Pcdha1,inactive: -2.02
9,GGAGUCAGAAUGUAUAAAUTT against C530015C18,inactive: 0.841
10,GGCAGACAAUGCAGUUAACTT against Atp8a2,inactive: -0.551
11,GCUAACUGAUACAUUAGAATT against Trim59,inactive: 0.479
12,GGGCUUGUCUAGCCAUGCATT against Wiz,inactive: 0.805
13,GGCAGUUUUGGGAUUGUUUTT against E4f1,inactive: 1.16
14,GCUAACCAUAAGUCUGUUUTT against Trim16,inactive: -0.103
15,GGCGGAAAAAGGAUUUCAATT against A230042K10Rik,inactive: -0.774
16,GGAGGUUGGGAUGAAUUAUTT against Rab6b,inactive: 0.998
17,CGGCCAACUUGCUCAAUGATT against Cnnm2,inactive: -0.767
18,GAUUGGCAAUUGUGGCCAUTT against Defb4,inactive: -0.36
19,GAUUGUGUCGUCCAUUACATT against Tuba3,inactive: -1.62
20,GGAAAAGAGACAGAAUUUGTT against 2610103M17Rik,inactive: 1.33
21,GCACGUAUACUAAAAUUGGTT against 2310014L17Rik,inactive: -0.129
22,GAGAACUGCUACGACUCUGTT against Coro2a,inactive: 0.335

# 4 records picked at random from the list so far, as already listed:
row,Sequence,z-score
2,GGACAAUGUCCUCCAAUCUTT against Rgnef,inactive: -1.42
19,GAUUGUGUCGUCCAUUACATT against Tuba3,inactive: -1.62
7,GCGAUCUAGUGAAGAUGUGTT against Rapgef4,inactive: -0.00169
16,GGAGGUUGGGAUGAAUUAUTT against Rab6b,inactive: 0.998
